Taken from: PubChem BioAssay AID743454 (Peter MacCallum Cancer Centre, 2014)

Assay: 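Search for knock-downs that restore vorinostat killing in resistant colon cancer cells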 (primary screen)
Cells: human HCT116-VR colon cancer cells, selected for vorinostat resistance
Reagent: siRNA pool against human genes, 40 nM siRNA pool
Duration: vorinostat for 24 h, read-out about 72 h after transfection
Treatment: vorinostat at 2.5 µM final
Read-out: 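Two measures, CellTiter-Fluor viability and luminescent caspase 3/7 activity, each as fold change against same-plate mock wells, mean of duplicates, then screen-wide robust z-score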
Reading the numbers: viability robust z-score: higher = more viable cells than screen typical; caspase robust z-score: higher = more caspase 3/7 activity than screen typical
Active means: 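Hits are knock-downs in viability class RV1/RV2 or caspase class CA1/CA2, excluding ones that killed cells in the no-drug cell-count arm; hits then retested with single siRNAs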
The whole screen tested about 18,000 reagents; below is a part drawn at random. 450 of all reagents (2.5%) were called active. 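Single biological run; no consistent viability z cut-off exists, so the class columns, not z-scores, define the calls.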 Entries without a mark were called inactive.

The opening 2 entries, to show the layout:
PPIL2 (GeneID 23759): viability hit class = RV2 (reduced viability) (active); caspase hit class = no change; viability robust z-score = -3.38; caspase robust z-score = 4.67
GFRA4 (GeneID 64096): viability hit class = no change; caspase hit class = no change; viability robust z-score = -0.82; caspase robust z-score = 1.94

The listing, from the start:
PPIL2 (GeneID 23759): viability hit class = RV2 (reduced viability) (active); caspase hit class = no change; viability robust z-score = -3.38; caspase robust z-score = 4.67
GFRA4 (GeneID 64096): viability hit class = no change; caspase hit class = no change; viability robust z-score = -0.82; caspase robust z-score = 1.94
ENDOU (GeneID 8909): viability hit class = no change (active); caspase hit class = CA2 (caspase activation); viability robust z-score = -1.68; caspase robust z-score = 7.75
CYB5R5 (GeneID 606495): viability hit class = no change; caspase hit class = no change; viability robust z-score = 0.83; caspase robust z-score = 2.19
ADGRF1 (GeneID 266977): viability hit class = no change; caspase hit class = no change; viability robust z-score = 0.57; caspase robust z-score = 0.08
IFI27L2 (GeneID 83982): viability hit class = no change; caspase hit class = no change; viability robust z-score = -1.18; caspase robust z-score = 0.14
PROCR (GeneID 10544): viability hit class = no change; caspase hit class = no change; viability robust z-score = 0.12; caspase robust z-score = -0.38
RPP40 (GeneID 10799): viability hit class = no change; caspase hit class = no change; viability robust z-score = 1.54; caspase robust z-score = -1.12
ZNF714 (GeneID 148206): viability hit class = no change; caspase hit class = no change; viability robust z-score = 0.84; caspase robust z-score = 0.39
LOC653978 (retired record) (GeneID 653978): viability hit class = no change; caspase hit class = no change; viability robust z-score = -0.4; caspase robust z-score = 4.4
B3GAT3 (GeneID 26229): viability hit class = no change; caspase hit class = no change; viability robust z-score = 0.34; caspase robust z-score = 0.03
NTRK1 (GeneID 4914): viability hit class = no change; caspase hit class = no change; viability robust z-score = -1.94; caspase robust z-score = 0.24
